Laboratory results: PubChem BioAssay AID1508597 (Cure First, 2020)

Purpose: 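Genes whose silencing sensitises or protects ovarian cancer cells against rucaparib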 (primary screen)
Cell system: human ovarian carcinoma lines grown from tumours: OCI-P5x (papillary serous) and OCI-C5x (clear cell)
Reagent: siRNA pool against human genes, 1.25 pmol siRNA per well
Duration: 72 h or 96 h, depending on the cell culture
Treatment: rucaparib 20 µM (about IC30) or vehicle, present until read-out
Rucaparib or vehicle: Rucaparib
Cell line: OCI-C5x (clear cell)
Detection: 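Luminescent ATP-based viability assay read 72 or 96 h after transfection, depending on culture, given as normalised percent viability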
Direction: viability, normalised: higher = more viable cells remaining
Hit rule: 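a well counts as a hit if its normalised viability is under 80 percent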
Meaning of the calls: active = viability under 80%; inactive = viability 80% or more
This is a random part of the about 2,100 reagents, in one setting of the screen. 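Calls flag viability under 80% in either arm, not effects specific to rucaparib; the reference for percent is not stated.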 A reagent listed more than once was tested more than once; the source does not tell the runs apart. Not stated in the record: the 100% reference.

AEBP2 (GeneID 121536), technical replicate 1 | viability, normalised (%) = 59.5; outcome = active
AEBP2 (GeneID 121536), technical replicate 2 | viability, normalised (%) = 47.1; outcome = active
AEBP2 (GeneID 121536), technical replicate 3 | viability, normalised (%) = 51.9; outcome = active
EPHB6 (GeneID 2051), technical replicate 1 | viability, normalised (%) = 57.5; outcome = active
EPHB6 (GeneID 2051), technical replicate 2 | viability, normalised (%) = 54.3; outcome = active
EPHB6 (GeneID 2051), technical replicate 3 | viability, normalised (%) = 62.8; outcome = active
MAST1 (GeneID 22983), technical replicate 1 | viability, normalised (%) = 57.9; outcome = active
MAST1 (GeneID 22983), technical replicate 2 | viability, normalised (%) = 46.9; outcome = active
MAST1 (GeneID 22983), technical replicate 3 | viability, normalised (%) = 45.6; outcome = active
ARSA (GeneID 410), technical replicate 1 | viability, normalised (%) = 57.4; outcome = active
ARSA (GeneID 410), technical replicate 2 | viability, normalised (%) = 41.9; outcome = active
ARSA (GeneID 410), technical replicate 3 | viability, normalised (%) = 45; outcome = active
PRKCI (GeneID 5584), technical replicate 1 | viability, normalised (%) = 45.2; outcome = active
PRKCI (GeneID 5584), technical replicate 1 | viability, normalised (%) = 35.1; outcome = active
PRKCI (GeneID 5584), technical replicate 2 | viability, normalised (%) = 47.3; outcome = active
PRKCI (GeneID 5584), technical replicate 2 | viability, normalised (%) = 53.4; outcome = active
PRKCI (GeneID 5584), technical replicate 3 | viability, normalised (%) = 53.7; outcome = active
PRKCI (GeneID 5584), technical replicate 3 | viability, normalised (%) = 48.8; outcome = active

4 entries from above, arranged by “viability, normalised (%)”, high to low:
ARSA (GeneID 410), technical replicate 1 | viability, normalised (%) = 57.4; outcome = active
MAST1 (GeneID 22983), technical replicate 2 | viability, normalised (%) = 46.9; outcome = active
MAST1 (GeneID 22983), technical replicate 3 | viability, normalised (%) = 45.6; outcome = active
ARSA (GeneID 410), technical replicate 2 | viability, normalised (%) = 41.9; outcome = active

Additional records:
FNTA (GeneID 2339), technical replicate 1 | viability, normalised (%) = 65.2; outcome = active
FNTA (GeneID 2339), technical replicate 2 | viability, normalised (%) = 39.1; outcome = active
FNTA (GeneID 2339), technical replicate 3 | viability, normalised (%) = 40.5; outcome = active
TRPM7 (GeneID 54822), technical replicate 1 | viability, normalised (%) = 59.5; outcome = active
TRPM7 (GeneID 54822), technical replicate 2 | viability, normalised (%) = 56.6; outcome = active
TRPM7 (GeneID 54822), technical replicate 3 | viability, normalised (%) = 72.3; outcome = active
TCF3 (GeneID 6929), technical replicate 1 | viability, normalised (%) = 48.3; outcome = active
TCF3 (GeneID 6929), technical replicate 2 | viability, normalised (%) = 49.6; outcome = active
TCF3 (GeneID 6929), technical replicate 3 | viability, normalised (%) = 32.9; outcome = active
SMARCA2 (GeneID 6595), technical replicate 1 | viability, normalised (%) = 33.3; outcome = active
SMARCA2 (GeneID 6595), technical replicate 2 | viability, normalised (%) = 59.6; outcome = active
SMARCA2 (GeneID 6595), technical replicate 3 | viability, normalised (%) = 53.6; outcome = active
ZMYND8 (GeneID 23613), technical replicate 1 | viability, normalised (%) = 73.7; outcome = active
ZMYND8 (GeneID 23613), technical replicate 2 | viability, normalised (%) = 81.2; outcome = inactive
ZMYND8 (GeneID 23613), technical replicate 3 | viability, normalised (%) = 56.5; outcome = active
